# According to article PMC7819943, “Rice protein-binding microarrays: a tool to detect cis-acting elements near promoter regions in rice”:
# The chains behind the UniProt entries cited, without tags or fusion partners.
# UniProt Q0JBA9, entry or part of it: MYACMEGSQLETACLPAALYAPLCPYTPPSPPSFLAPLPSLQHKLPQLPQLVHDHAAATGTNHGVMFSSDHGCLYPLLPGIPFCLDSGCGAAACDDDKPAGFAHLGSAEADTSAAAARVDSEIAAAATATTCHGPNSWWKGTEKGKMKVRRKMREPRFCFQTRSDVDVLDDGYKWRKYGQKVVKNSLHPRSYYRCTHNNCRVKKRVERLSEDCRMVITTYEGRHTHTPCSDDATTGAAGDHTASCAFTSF
# The list shows a part of the results.
# Target: OsWRKY34 (Oryza sativa, UniProt Q0JBA9 1-250)
# Test: protein-binding microarray (RPBM); PBS, 2% BSA, 51.3 ng/ul salmon testes DNA, 50 uM zinc acetate, 200 nM TF, 25 C, 1 h; high values mean tight binding
# Conditions: protein: recombinant; tags: N-terminal polyhistidine and DsRed monomer fusion (pET32a); label: CyDye5-dUTP incorporated in the synthesized complementary strand; 3' TTTTT single-stranded linker to array surface; dsDNA, one strand shown
# Outline: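 Transcription factors, each fused N-terminally to a polyhistidine tag and DsRed, were expressed in E. coli BL21-CodonPlus and purified on Ni–NTA. A custom Agilent array was made double-stranded by primer extension with Cy5-dUTP and blocked with 2% BSA. It was incubated with 200 nM protein in PBS, 2% BSA, salmon testes DNA and 50 µM zinc acetate at 25 °C for 1 h, then washed. The binding signal is per-feature fluorescence intensity (arbitrary units) read on an Axon 4000B scanner.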
row,Sequence,binding signal
1,CCGTCGGCCCCATTATATGTGCCATTTGTACGTTTCTATTCGGAGTCACCTAGTGCAG,8900 fluorescence intensity (a.u.)
2,GGTGAGCTCTCTTTAATGCATATACACAGCAGCCTATTGCCGGAGTCACCTAGTGCAG,8440 fluorescence intensity (a.u.)
3,TCATCTCTGCCTCTAGATTTGGACCCAAATACCGCGACTTCGGAGTCACCTAGTGCAG,10800 fluorescence intensity (a.u.)
4,CAGGGTTGCGTGGAGGGTGAAGGGGATCATTCAGGTGAGACGGAGTCACCTAGTGCAG,8140 fluorescence intensity (a.u.)
5,AACAATCACCTAGGCTAAATGTTACTTCCTCCGTTTCACACGGAGTCACCTAGTGCAG,9190 fluorescence intensity (a.u.)
6,ATACGTTGTAGCTTGTTGTTGTCGCGAGGACGCACACGCGCGGAGTCACCTAGTGCAG,8450 fluorescence intensity (a.u.)
7,TCGTTTATGGATTTAACCACGGTTTCTTGTATTTGTTTCTCGGAGTCACCTAGTGCAG,11400 fluorescence intensity (a.u.)
8,ATGTACTATGTATTCTCCAGCTGCCGTACTGTGCACGGATCGGAGTCACCTAGTGCAG,8290 fluorescence intensity (a.u.)
9,GCACACCACAGTACTATTCAACAACATTACTTTTTTGCCTCGGAGTCACCTAGTGCAG,11300 fluorescence intensity (a.u.)
10,TGTCGAGAGGCAGGGTTGTACCGAGGTCGTAGGTTTTTCTCGGAGTCACCTAGTGCAG,9260 fluorescence intensity (a.u.)
11,GTCAGTCAACACCCTGCAACTGTTGTCGCTCAAAAAACCGCGGAGTCACCTAGTGCAG,8380 fluorescence intensity (a.u.)
12,ACTCCGCTATAAAAATTTCTCTCCCCGCACTCTCTACGCGCGGAGTCACCTAGTGCAG,8550 fluorescence intensity (a.u.)
13,CCTTTCTTTTCTCTTTATCTTTATCTTTATCTTTATCCTTCGGAGTCACCTAGTGCAG,13200 fluorescence intensity (a.u.)
14,TAATAGTAGTTTAGCATGTGTTGTTTCCTCATGTTCGTCACGGAGTCACCTAGTGCAG,10800 fluorescence intensity (a.u.)
15,AGCCACCCGCCACCCGCCGCCGCTCGCCGCCCGCCGCCGACGGAGTCACCTAGTGCAG,9260 fluorescence intensity (a.u.)
16,CACAATATTCCCTTCCACGCCACCAACTTTTCCACCCTTCCGGAGTCACCTAGTGCAG,8460 fluorescence intensity (a.u.)
17,GGGTATTGAGTTTGATTATTGTTGTTGCCATGCTTCATTTCGGAGTCACCTAGTGCAG,9430 fluorescence intensity (a.u.)
18,AAACCCAAGCCTCCATCCATCCATCCATTCATCAGAGCTCCGGAGTCACCTAGTGCAG,8550 fluorescence intensity (a.u.)
19,AGGGGCATAACATACCTTGTTTCTTCTTGTCTCATCTGCACGGAGTCACCTAGTGCAG,13600 fluorescence intensity (a.u.)
20,TTGGTACGTTCCCCAAACTGTAAGCCATCACCCCAAAATACGGAGTCACCTAGTGCAG,8070 fluorescence intensity (a.u.)
21,GAGGTGGTGGAGGAGGAGGCCAGGGGTTCGTTGGCGGCGGCGGAGTCACCTAGTGCAG,8840 fluorescence intensity (a.u.)

# Looked up one by one from the list above, 3 records:
row,Sequence,binding signal
15,AGCCACCCGCCACCCGCCGCCGCTCGCCGCCCGCCGCCGACGGAGTCACCTAGTGCAG,9260 fluorescence intensity (a.u.)
3,TCATCTCTGCCTCTAGATTTGGACCCAAATACCGCGACTTCGGAGTCACCTAGTGCAG,10800 fluorescence intensity (a.u.)
13,CCTTTCTTTTCTCTTTATCTTTATCTTTATCTTTATCCTTCGGAGTCACCTAGTGCAG,13200 fluorescence intensity (a.u.)

# Next part.

row,Sequence,binding signal
1,GCGATCACCCGCCTATTAGCATTAGCATTCTCGGCGATCACGGAGTCACCTAGTGCAG,12200 fluorescence intensity (a.u.)
2,TAGAAAGATTCTGGTTCCGCCACCCATTATCCATGCTAATCGGAGTCACCTAGTGCAG,9610 fluorescence intensity (a.u.)
3,TACCACCCACGCACGCTCGCCGGCAACCTCTCCGCGTTCGCGGAGTCACCTAGTGCAG,9310 fluorescence intensity (a.u.)
4,CCCACACTTCTCCCGTTCTCCTGGAGGAAGACGACACCCACGGAGTCACCTAGTGCAG,8150 fluorescence intensity (a.u.)
5,ATTTTCCTTGATTTTTTTTGTGTGTTTGGGAATTGGGATACGGAGTCACCTAGTGCAG,12600 fluorescence intensity (a.u.)
6,GGAGGTGTCGCCGTTCCCGTTGTTCTGCTGCCTCGAGCCCCGGAGTCACCTAGTGCAG,13000 fluorescence intensity (a.u.)
7,CTCCTCCTTACCTTCCCTGCTCGGGGAGGTCGGGGTCGCTCGGAGTCACCTAGTGCAG,8780 fluorescence intensity (a.u.)
8,GTATACTCTGCTGATGTGTTTATGTGTTTAAGGTCGTTGACGGAGTCACCTAGTGCAG,10000 fluorescence intensity (a.u.)
9,TTCAAAATATTTGACACCGTTGACTTTTTAGTACGTGTTTCGGAGTCACCTAGTGCAG,18200 fluorescence intensity (a.u.)
10,CTACTGTATACTACTCTCAGTTTCTTCTTGTTTCTTAGTCCGGAGTCACCTAGTGCAG,12600 fluorescence intensity (a.u.)
11,GCTTCTTTCGCAAACACAGCCACGAAGTTATACAAATTTTCGGAGTCACCTAGTGCAG,8460 fluorescence intensity (a.u.)
12,CCAAAACTTTGATCACTAACCATCTTATCTCAGTTTGATCCGGAGTCACCTAGTGCAG,8340 fluorescence intensity (a.u.)
13,GTCCAGTCAATTTGTCAAATTTTCTTCTGCTGGTCTTGATCGGAGTCACCTAGTGCAG,13200 fluorescence intensity (a.u.)
14,CAATTATCATTTATTTTGTTGTGAGTTGTTTTATCACTAACGGAGTCACCTAGTGCAG,8660 fluorescence intensity (a.u.)
15,GTCTTGATTGCTTCAATTTTGCGTTACCTTACCATTTCTTCGGAGTCACCTAGTGCAG,10800 fluorescence intensity (a.u.)
16,TGATTGTTGTGATTAACAAAGTTGTAATATCTTTTGGTTTCGGAGTCACCTAGTGCAG,8040 fluorescence intensity (a.u.)
17,CGCCGCCGACTTTTCCAGACTTACCGCCTATTCTAATCCCCGGAGTCACCTAGTGCAG,10200 fluorescence intensity (a.u.)
18,CGTCTCCGGCGACCGCCGCCGCCGCCGCCCTCACCGTCCGCGGAGTCACCTAGTGCAG,8920 fluorescence intensity (a.u.)
19,TTGAAACTCAACGATACATCACTAGCTACCATTACGTATACGGAGTCACCTAGTGCAG,8320 fluorescence intensity (a.u.)
20,CATGAGCACATAATCTCCCACTGGTCAAATCCAATGCACCCGGAGTCACCTAGTGCAG,8680 fluorescence intensity (a.u.)
21,ATATGTTTTGTATTGGGAGGGAGGGAGTAATCGCTGAAGGCGGAGTCACCTAGTGCAG,8880 fluorescence intensity (a.u.)
